This is an account of results in the supplement of paper PMC12823440, “Inhibitors supercharge kinase turnover through native proteolytic circuits” (Nature, 2025).

By UniProt entry, the sequences of proteins in these tests, tags left out. Where a name states a change or a piece, a line headed by the entry shows the natural chain unless it says otherwise.
UniProt P11362, whole entry, looked up: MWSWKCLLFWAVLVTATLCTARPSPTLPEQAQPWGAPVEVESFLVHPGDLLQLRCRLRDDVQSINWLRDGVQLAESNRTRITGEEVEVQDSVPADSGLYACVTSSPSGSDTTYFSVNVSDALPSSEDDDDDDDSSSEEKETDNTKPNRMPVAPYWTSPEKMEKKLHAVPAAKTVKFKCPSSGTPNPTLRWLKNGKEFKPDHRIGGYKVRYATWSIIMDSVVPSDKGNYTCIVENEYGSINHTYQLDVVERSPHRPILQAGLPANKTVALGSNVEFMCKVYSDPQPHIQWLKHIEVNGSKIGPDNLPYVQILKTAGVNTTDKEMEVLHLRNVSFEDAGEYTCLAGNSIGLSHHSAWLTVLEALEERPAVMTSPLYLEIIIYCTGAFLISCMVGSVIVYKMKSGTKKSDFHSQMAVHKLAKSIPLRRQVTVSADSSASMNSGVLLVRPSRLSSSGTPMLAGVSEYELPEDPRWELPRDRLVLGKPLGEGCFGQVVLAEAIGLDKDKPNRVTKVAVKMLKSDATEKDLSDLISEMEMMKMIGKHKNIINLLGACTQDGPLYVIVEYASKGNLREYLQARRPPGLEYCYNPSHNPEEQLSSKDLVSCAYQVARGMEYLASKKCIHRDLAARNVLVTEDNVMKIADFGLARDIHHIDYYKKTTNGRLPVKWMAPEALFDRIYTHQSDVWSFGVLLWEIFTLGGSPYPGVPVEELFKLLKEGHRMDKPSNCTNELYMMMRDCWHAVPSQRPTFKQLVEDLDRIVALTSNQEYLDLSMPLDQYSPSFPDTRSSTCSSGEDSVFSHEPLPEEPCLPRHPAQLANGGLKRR
UniProt P36888, whole entry: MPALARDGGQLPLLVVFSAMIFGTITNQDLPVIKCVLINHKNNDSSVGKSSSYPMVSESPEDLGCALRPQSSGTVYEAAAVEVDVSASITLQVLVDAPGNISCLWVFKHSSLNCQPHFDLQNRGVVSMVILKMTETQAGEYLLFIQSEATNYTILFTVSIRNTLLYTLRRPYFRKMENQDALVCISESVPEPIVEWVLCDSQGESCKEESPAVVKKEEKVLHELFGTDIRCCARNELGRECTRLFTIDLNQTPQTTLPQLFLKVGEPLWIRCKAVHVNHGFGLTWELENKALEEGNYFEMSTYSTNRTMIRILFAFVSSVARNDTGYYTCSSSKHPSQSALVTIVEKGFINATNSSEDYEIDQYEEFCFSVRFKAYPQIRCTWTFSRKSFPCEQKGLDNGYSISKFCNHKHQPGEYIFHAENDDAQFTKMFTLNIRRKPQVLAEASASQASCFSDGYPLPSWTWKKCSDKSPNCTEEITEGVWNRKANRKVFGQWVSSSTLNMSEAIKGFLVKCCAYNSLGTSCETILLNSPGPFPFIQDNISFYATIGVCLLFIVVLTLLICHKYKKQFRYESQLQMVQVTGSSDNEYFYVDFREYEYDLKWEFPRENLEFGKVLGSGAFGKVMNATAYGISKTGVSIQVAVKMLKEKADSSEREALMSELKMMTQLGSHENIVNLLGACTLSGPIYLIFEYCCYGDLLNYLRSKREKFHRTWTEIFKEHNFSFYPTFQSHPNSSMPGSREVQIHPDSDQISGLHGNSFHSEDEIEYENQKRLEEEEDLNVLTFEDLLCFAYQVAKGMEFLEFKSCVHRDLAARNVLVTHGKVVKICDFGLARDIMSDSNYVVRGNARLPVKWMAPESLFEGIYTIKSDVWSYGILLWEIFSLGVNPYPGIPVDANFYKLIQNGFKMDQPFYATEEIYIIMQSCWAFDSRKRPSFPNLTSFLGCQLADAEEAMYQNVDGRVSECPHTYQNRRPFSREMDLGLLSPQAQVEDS
UniProt P06241, whole entry, looked up: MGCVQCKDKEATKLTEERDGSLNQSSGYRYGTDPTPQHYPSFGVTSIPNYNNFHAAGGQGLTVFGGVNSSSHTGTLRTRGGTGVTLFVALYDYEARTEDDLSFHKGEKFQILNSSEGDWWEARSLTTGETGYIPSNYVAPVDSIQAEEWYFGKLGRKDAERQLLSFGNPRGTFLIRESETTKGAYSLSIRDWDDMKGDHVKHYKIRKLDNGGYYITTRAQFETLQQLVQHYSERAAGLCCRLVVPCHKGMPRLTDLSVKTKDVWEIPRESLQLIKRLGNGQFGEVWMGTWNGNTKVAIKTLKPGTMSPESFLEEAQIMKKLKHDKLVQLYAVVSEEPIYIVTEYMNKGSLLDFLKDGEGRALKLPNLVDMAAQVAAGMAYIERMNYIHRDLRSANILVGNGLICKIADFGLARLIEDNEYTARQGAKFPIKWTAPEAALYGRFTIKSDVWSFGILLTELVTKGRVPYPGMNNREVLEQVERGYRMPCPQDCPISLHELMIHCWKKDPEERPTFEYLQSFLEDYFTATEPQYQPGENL
UniProt P14616: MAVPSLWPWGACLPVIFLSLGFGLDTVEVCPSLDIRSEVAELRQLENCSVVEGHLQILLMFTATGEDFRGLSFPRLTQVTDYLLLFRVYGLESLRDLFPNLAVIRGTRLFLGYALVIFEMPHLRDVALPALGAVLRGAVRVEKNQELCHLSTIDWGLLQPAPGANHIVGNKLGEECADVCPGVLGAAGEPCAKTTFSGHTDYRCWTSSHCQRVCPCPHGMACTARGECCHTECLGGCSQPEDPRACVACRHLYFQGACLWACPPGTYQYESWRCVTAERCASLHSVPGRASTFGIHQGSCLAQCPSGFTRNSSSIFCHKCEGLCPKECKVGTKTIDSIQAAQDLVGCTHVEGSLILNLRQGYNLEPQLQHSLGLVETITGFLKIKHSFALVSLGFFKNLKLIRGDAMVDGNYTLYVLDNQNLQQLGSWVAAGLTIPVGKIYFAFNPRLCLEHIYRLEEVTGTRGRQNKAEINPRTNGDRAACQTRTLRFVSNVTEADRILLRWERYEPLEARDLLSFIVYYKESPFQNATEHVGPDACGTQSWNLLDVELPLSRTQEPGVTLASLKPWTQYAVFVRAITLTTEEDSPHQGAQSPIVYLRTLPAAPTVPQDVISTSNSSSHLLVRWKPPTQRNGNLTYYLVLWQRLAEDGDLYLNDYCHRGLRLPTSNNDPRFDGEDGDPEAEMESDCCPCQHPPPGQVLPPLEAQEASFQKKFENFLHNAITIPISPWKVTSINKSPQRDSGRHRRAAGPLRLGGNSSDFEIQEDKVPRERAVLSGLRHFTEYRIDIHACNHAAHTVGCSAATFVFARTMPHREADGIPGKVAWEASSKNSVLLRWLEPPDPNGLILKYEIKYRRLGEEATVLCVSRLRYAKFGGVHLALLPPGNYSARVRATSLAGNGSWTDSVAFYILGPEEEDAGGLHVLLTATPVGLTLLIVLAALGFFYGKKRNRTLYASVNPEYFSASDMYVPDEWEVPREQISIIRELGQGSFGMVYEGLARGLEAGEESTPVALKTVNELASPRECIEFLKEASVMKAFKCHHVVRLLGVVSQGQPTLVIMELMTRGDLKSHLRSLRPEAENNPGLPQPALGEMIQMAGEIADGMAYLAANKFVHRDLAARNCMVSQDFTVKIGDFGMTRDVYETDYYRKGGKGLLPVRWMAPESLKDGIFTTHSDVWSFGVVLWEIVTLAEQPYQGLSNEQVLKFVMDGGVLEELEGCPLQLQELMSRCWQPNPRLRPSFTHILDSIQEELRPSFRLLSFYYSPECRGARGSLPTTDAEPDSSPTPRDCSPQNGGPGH
UniProt Q9Y616: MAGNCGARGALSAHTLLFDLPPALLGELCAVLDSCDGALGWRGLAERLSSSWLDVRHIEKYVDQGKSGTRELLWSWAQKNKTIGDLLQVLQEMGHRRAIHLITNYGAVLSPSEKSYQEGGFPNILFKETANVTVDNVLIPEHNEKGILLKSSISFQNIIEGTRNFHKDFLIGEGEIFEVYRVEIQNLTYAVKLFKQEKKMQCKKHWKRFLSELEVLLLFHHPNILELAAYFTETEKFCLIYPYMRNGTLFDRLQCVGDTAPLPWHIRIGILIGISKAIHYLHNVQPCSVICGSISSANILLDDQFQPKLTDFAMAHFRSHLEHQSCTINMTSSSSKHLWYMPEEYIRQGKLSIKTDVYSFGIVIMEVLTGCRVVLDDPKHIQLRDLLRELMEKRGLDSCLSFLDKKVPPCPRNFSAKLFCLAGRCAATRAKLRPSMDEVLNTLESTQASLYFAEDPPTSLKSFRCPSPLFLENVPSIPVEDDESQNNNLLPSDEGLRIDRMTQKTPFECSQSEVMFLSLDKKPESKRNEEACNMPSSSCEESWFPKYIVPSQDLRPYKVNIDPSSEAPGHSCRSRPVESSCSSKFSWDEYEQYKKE
UniProt P06239: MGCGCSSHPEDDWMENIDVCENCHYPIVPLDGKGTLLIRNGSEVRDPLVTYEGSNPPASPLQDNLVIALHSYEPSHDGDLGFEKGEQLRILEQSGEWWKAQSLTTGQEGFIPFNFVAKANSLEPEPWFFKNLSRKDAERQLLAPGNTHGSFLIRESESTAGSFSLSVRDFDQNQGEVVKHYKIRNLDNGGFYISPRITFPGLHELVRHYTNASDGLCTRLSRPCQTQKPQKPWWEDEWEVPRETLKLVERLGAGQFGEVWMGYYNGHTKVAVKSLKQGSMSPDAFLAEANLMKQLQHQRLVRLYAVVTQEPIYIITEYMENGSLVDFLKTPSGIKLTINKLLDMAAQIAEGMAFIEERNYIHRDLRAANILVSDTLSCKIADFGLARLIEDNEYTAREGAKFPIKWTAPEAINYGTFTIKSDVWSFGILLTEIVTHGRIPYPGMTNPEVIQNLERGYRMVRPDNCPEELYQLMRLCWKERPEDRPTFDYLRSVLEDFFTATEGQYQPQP
UniProt Q8IWU2: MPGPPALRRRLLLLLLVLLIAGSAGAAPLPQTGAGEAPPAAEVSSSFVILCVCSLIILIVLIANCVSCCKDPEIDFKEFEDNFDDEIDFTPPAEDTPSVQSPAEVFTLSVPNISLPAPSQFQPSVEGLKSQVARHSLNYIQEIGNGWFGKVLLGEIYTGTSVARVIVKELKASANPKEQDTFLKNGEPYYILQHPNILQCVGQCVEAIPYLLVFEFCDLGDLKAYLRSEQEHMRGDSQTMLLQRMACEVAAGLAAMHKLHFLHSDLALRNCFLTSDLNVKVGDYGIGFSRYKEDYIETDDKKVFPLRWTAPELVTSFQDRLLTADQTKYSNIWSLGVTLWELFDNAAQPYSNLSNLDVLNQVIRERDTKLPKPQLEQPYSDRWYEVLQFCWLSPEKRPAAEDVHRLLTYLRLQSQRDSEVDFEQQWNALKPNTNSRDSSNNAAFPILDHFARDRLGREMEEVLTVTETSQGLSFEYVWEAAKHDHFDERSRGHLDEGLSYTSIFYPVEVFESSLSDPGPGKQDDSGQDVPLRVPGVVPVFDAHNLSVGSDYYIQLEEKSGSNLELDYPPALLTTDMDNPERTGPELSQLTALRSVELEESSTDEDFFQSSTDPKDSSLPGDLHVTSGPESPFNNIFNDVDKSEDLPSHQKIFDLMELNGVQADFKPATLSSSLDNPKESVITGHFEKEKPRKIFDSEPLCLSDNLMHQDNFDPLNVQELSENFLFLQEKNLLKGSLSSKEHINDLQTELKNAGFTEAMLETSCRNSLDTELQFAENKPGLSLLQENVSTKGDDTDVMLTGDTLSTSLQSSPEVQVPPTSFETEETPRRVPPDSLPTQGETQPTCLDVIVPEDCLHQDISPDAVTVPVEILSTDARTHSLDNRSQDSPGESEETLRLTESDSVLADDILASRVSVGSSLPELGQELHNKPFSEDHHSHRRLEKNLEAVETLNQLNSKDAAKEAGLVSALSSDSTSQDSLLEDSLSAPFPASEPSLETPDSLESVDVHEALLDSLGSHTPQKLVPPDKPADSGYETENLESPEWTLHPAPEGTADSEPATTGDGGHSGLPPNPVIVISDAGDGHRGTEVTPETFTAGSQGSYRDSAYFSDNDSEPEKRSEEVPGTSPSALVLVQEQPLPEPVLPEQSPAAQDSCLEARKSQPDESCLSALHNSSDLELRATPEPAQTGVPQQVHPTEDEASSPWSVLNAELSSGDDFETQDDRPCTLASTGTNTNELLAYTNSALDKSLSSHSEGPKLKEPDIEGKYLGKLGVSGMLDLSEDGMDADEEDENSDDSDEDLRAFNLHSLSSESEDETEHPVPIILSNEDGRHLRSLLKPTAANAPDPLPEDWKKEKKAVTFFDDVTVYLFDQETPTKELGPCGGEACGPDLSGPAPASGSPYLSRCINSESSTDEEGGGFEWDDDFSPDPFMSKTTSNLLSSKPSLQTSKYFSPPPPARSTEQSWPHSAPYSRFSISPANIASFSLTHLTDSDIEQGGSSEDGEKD

Counter-ions that a name gives are not always drawn. Some of the results follow. Hit calls seldom repeat between salt and free forms of one compound.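 Kinases were expressed as nanoluciferase fusions in K562 cells and luminescence was read every 4 h between 2 and 18 h as percent of control, DMSO set to 100% and a positive control to 0%. A time point counts as decreased when the signal drops significantly (2 sigma). The hit call is the authors' own, does not follow from the count of time points alone, and its rule is not shown.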

Among the targets are ERN1 (UniProt O75460); FGFR1 (UniProt P11362); FGFR2 (UniProt P21802); FGFR3 (UniProt P22607); FGR (UniProt P09769); FLT3 (UniProt P36888); FYN (UniProt P06241); GSK3A (UniProt P49840); HER2 (UniProt P04626); INSRR (UniProt P14616); IRAK3 (UniProt Q9Y616); JAK1 (UniProt P23458); LCK (UniProt P06239); LIMK1 (UniProt P53667); LIMK2 (UniProt P53671); LMTK2 (UniProt Q8IWU2); LYN (UniProt P07948); MAP2K1 (UniProt Q02750); MAP2K2 (UniProt P36507); MAP4K2 (UniProt Q12851).

Assay in all cases: kinase-Nluc reporter destabilization hit call (1 = scored as downregulated) (binary); higher = compound decreases kinase abundance
Settings in all cases: K562, 2-18 h

Turning to `CCCCCCCCc1ccc(CCC(N)(CO)CO)cc1` [Fingolimod (hydrochloride)], the “kinase-Nluc reporter destabilization hit call” value with ERN1 (2.5 µM), with FGFR1 (2.5 µM), in the assay with FGFR2 (2.5 µM), in the assay with FGFR3 (2.5 µM), with FGR (2.5 µM) and with FLT3 (2.5 µM) was inactive: 0 in each case. Moreover, the “kinase-Nluc reporter destabilization hit call” value in the assay with FYN (2.5 µM), with GSK3A (2.5 µM), with HER2 (2.5 µM), with INSRR (2.5 µM), in the assay with IRAK3 (2.5 µM) and in the assay with JAK1 (2.5 µM) was inactive: 0 in each case. The “kinase-Nluc reporter destabilization hit call” value with LCK (2.5 µM), with LIMK1 (2.5 µM), with LIMK2 (2.5 µM), with LMTK2 (2.5 µM), with LYN (2.5 µM) and with MAP2K1 (2.5 µM) was inactive: 0 each time. For the same molecule, the “kinase-Nluc reporter destabilization hit call” value in the assay with MAP2K2 (2.5 µM) and in the assay with MAP4K2 (2.5 µM) was inactive: 0 in each case.

As to `COc1cc2nccc(Oc3ccc(NC(=O)C4(C(=O)Nc5ccc(F)cc5)CC4)cc3)c2cc1OC` [Cabozantinib], the “kinase-Nluc reporter destabilization hit call” value in the assay with ERN1 (2.5 µM), with FGFR1 (2.5 µM), in the assay with FGFR2 (2.5 µM), with FGFR3 (2.5 µM), in the assay with FGR (2.5 µM) and with FLT3 (2.5 µM) was inactive: 0 each time. Besides, the “kinase-Nluc reporter destabilization hit call” value with FYN (2.5 µM), in the assay with GSK3A (2.5 µM), with HER2 (2.5 µM), in the assay with INSRR (2.5 µM), in the assay with IRAK3 (2.5 µM) and with JAK1 (2.5 µM) was inactive: 0 in each case. The “kinase-Nluc reporter destabilization hit call” value with LCK (2.5 µM), with LIMK1 (2.5 µM), with LIMK2 (2.5 µM), with LMTK2 (2.5 µM), in the assay with LYN (2.5 µM) and with MAP2K1 (2.5 µM) was inactive: 0 each time. For the same molecule, the “kinase-Nluc reporter destabilization hit call” value with MAP2K2 (2.5 µM) and with MAP4K2 (2.5 µM) was inactive: 0 throughout.

Turning to `N#CCNC(=O)c1ccc(-c2ccnc(Nc3ccc(N4CCOCC4)cc3)n2)cc1` [Momelotinib], the “kinase-Nluc reporter destabilization hit call” value with ERN1 (10 µM), in the assay with FGFR1 (10 µM), in the assay with FGFR2 (10 µM), with FGFR3 (10 µM), with FGR (10 µM) and in the assay with FLT3 (10 µM) was inactive: 0 throughout. Moreover, the “kinase-Nluc reporter destabilization hit call” value in the assay with FYN (10 µM), with GSK3A (10 µM), with HER2 (10 µM), with INSRR (10 µM), with IRAK3 (10 µM) and with JAK1 (10 µM) was inactive: 0 in each case. The “kinase-Nluc reporter destabilization hit call” value with LCK (10 µM), with LIMK1 (10 µM), with LIMK2 (10 µM), with LMTK2 (10 µM), with LYN (10 µM) and in the assay with MAP2K1 (10 µM) was inactive: 0 in each case. For the same molecule, the “kinase-Nluc reporter destabilization hit call” value with MAP2K2 (10 µM) and with MAP4K2 (10 µM) was inactive: 0 each time.

For the molecule `Nc1cncc(-c2cn3ccnc3c(Nc3ccc(N4CCN(C5COC5)CC4)cc3)n2)n1` [Lanraplenib (succinate)], the “kinase-Nluc reporter destabilization hit call” value with ERN1 (10 µM), in the assay with FGFR1 (10 µM), with FGFR2 (10 µM), with FGFR3 (10 µM), in the assay with FGR (10 µM) and with FLT3 (10 µM) was inactive: 0 throughout. In addition, the “kinase-Nluc reporter destabilization hit call” value in the assay with FYN (10 µM), with GSK3A (10 µM), with HER2 (10 µM), in the assay with INSRR (10 µM), with IRAK3 (10 µM) and in the assay with JAK1 (10 µM) was inactive: 0 in each case. Further, the “kinase-Nluc reporter destabilization hit call” value in the assay with LCK (10 µM), with LIMK1 (10 µM), with LIMK2 (10 µM), with LMTK2 (10 µM), with LYN (10 µM) and with MAP2K1 (10 µM) was inactive: 0 throughout. Further, the “kinase-Nluc reporter destabilization hit call” value with MAP2K2 (10 µM) and with MAP4K2 (10 µM) was inactive: 0 each time.

For `COc1ncc(F)cc1CNc1ccc(Cc2c[nH]c3ncc(C)cc23)c(F)n1`, the “kinase-Nluc reporter destabilization hit call” value with ERN1 (10 µM), with FGFR1 (10 µM), with FGFR2 (10 µM), in the assay with FGFR3 (10 µM), with FGR (10 µM) and with FLT3 (10 µM) was inactive: 0 each time. Also, the “kinase-Nluc reporter destabilization hit call” value in the assay with FYN (10 µM), in the assay with GSK3A (10 µM), in the assay with HER2 (10 µM), with INSRR (10 µM), with IRAK3 (10 µM) and with JAK1 (10 µM) was inactive: 0 in each case. For the same molecule, the “kinase-Nluc reporter destabilization hit call” value in the assay with LCK (10 µM), with LIMK1 (10 µM), with LIMK2 (10 µM), with LMTK2 (10 µM), with LYN (10 µM) and with MAP2K1 (10 µM) was inactive: 0 throughout. Also, the “kinase-Nluc reporter destabilization hit call” value with MAP2K2 (10 µM) and in the assay with MAP4K2 (10 µM) was inactive: 0 each time.

Regarding `C[C@H](Nc1cc(-c2cnn(C)c2)cc(Nc2cnccn2)n1)c1ccc(F)cc1` [Ilginatinib hydrochloride], the “kinase-Nluc reporter destabilization hit call” value is inactive: 0 with ERN1 (2.5 µM); inactive: 0 in the assay with FGFR1 (2.5 µM); active: 1 in the assay with FGFR2 (2.5 µM); inactive: 0 with FGFR3 (2.5 µM); inactive: 0 with FGR (2.5 µM); inactive: 0 with FLT3 (2.5 µM). Further, the “kinase-Nluc reporter destabilization hit call” value with FYN (2.5 µM), in the assay with GSK3A (2.5 µM), with HER2 (2.5 µM), with INSRR (2.5 µM), in the assay with IRAK3 (2.5 µM) and with JAK1 (2.5 µM) was inactive: 0 each time. Moreover, the “kinase-Nluc reporter destabilization hit call” value in the assay with LCK (2.5 µM), with LIMK1 (2.5 µM), in the assay with LIMK2 (2.5 µM), with LMTK2 (2.5 µM), with LYN (2.5 µM) and with MAP2K1 (2.5 µM) was inactive: 0 in each case. The “kinase-Nluc reporter destabilization hit call” value with MAP2K2 (2.5 µM) and in the assay with MAP4K2 (2.5 µM) was inactive: 0 in each case.
